The record followed here is PMC7819943, “Rice protein-binding microarrays: a tool to detect cis-acting elements near promoter regions in rice”.

Chains of the proteins cited; added tags and fusions are not shown.
UniProt Q0JBA9, entry or part of it: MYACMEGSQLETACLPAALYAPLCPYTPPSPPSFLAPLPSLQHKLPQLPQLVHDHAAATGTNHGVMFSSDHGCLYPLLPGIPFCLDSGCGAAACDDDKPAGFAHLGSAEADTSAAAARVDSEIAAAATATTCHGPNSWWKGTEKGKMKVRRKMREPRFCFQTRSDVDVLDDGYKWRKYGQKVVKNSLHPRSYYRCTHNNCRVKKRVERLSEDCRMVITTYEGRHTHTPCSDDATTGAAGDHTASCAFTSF

Some of the results follow.

This assay addresses OsWRKY34 (Oryza sativa, UniProt Q0JBA9 1-250). Kind of assay: protein-binding microarray (RPBM); PBS, 2% BSA, 51.3 ng/ul salmon testes DNA, 50 uM zinc acetate, 200 nM TF, 25 C, 1 h; high values mean tight binding. As to conditions: protein: recombinant; tags: N-terminal polyhistidine and DsRed monomer fusion (pET32a); label: CyDye5-dUTP incorporated in the synthesized complementary strand; 3' TTTTT single-stranded linker to array surface; dsDNA, one strand shown. A digest of the protocol:
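Transcription factors, each fused N-terminally to a polyhistidine tag and DsRed, were expressed in E. coli BL21-CodonPlus and purified on Ni–NTA. A custom Agilent array was made double-stranded by primer extension with Cy5-dUTP and blocked with 2% BSA. It was incubated with 200 nM protein in PBS, 2% BSA, salmon testes DNA and 50 µM zinc acetate at 25 °C for 1 h, then washed. The binding signal is per-feature fluorescence intensity (arbitrary units) read on an Axon 4000B scanner.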
In the case of “GTCTCAGAATATATGATACGATCGTCCTGTCACTTGCCCACGGAGTCACCTAGTGCAG”, the binding signal was 9060 fluorescence intensity (a.u.).

Consider “CTCCGGACTCGCCGCGATCCACTTATTCCTCGCTCCCAATCGGAGTCACCTAGTGCAG”, for which the binding signal was 8650 fluorescence intensity (a.u.). “GTTGTGCACAATCATCTCTAGTTGTTTTGTGTATCCCTATCGGAGTCACCTAGTGCAG”: the binding signal is 8830 fluorescence intensity (a.u.).

For “TCGTTGACTTTTTAACCAACGTTTAACCATTCGTCTTATTCGGAGTCACCTAGTGCAG”, the binding signal was 18600 fluorescence intensity (a.u.). As for “ACTGACTCTGACACACATCCTATCAAGCCTATACACATATCGGAGTCACCTAGTGCAG”, the binding signal was 10600 fluorescence intensity (a.u.).

In the case of “AGGGGTTAGCTATTATCGGACAACTTGGCATATTGAAATTCGGAGTCACCTAGTGCAG”, the binding signal was 11000 fluorescence intensity (a.u.). For “GTGGGCCACTACCTTCGCGTTCTTCATCGCCCACGTGGTCCGGAGTCACCTAGTGCAG”, the binding signal is 8910 fluorescence intensity (a.u.).

As to “TGAGCACATGGCAGGGGAGGGACCGATGGGTGGGAGGACGCGGAGTCACCTAGTGCAG”, the binding signal is 10500 fluorescence intensity (a.u.). Take “GTAAAGAGCTCTCTTATCCTGAACTTGAACTGTTTTTCTCCGGAGTCACCTAGTGCAG”: the binding signal was 9790 fluorescence intensity (a.u.). Take “CGCGCTGGAGATGTTTGGAGTGTTCTTTGCAGTTGCTGTTCGGAGTCACCTAGTGCAG”: the binding signal is 10200 fluorescence intensity (a.u.). On to “TTCCACGATTTGATTTTGAGTCTCTGTGAATTCAATCTTTCGGAGTCACCTAGTGCAG”, for which the binding signal was 8780 fluorescence intensity (a.u.). For “GTTGCCGCTACACCTTCCACCTCAGCACCCTCGATGGCCTCGGAGTCACCTAGTGCAG” the value was 9080 fluorescence intensity (a.u.).

Regarding “CCTTGCTGATATTGGGCTTGCGGGGAAGGAGGTTGATATTCGGAGTCACCTAGTGCAG”, the binding signal was 9120 fluorescence intensity (a.u.). With “TCGCTGGTGGGGCTCGGCTGGGCGGGGCTGTGGTTCCTCACGGAGTCACCTAGTGCAG”, the binding signal was 16300 fluorescence intensity (a.u.).

In the case of “GAGACCCAATAATCCATTGCATTGCTCTGCCAGGGTTCTACGGAGTCACCTAGTGCAG”, the binding signal is 8040 fluorescence intensity (a.u.). “TCCGTCGCGCCGCGCGCTTTCTTCTTCTTCTTCTTCTTCTCGGAGTCACCTAGTGCAG”: the binding signal was 8740 fluorescence intensity (a.u.).

Consider “CCCACACTTGGAACCTTGGATCATCTCATCTCACACACCCCGGAGTCACCTAGTGCAG”, for which the binding signal was 8640 fluorescence intensity (a.u.). Regarding “CTCGCCCCTGTCTCCGGCCAACCTCAATCGATCCCGCAACCGGAGTCACCTAGTGCAG”, the binding signal was 11200 fluorescence intensity (a.u.). On to “TTTCTTTTCTTTTCATTTCCCTGTGTACTTGTTCTGATCTCGGAGTCACCTAGTGCAG”, for which the binding signal is 9290 fluorescence intensity (a.u.).

For the sequence “ACTCGGTCCAACCAAACCGGCCGCTAGTACCAATCGCTACCGGAGTCACCTAGTGCAG”, the binding signal was 8500 fluorescence intensity (a.u.). Consider “TTGCCCATTCCATAGTTCAATCTTTTCATAACTATCACGCCGGAGTCACCTAGTGCAG”, for which the binding signal was 8680 fluorescence intensity (a.u.). Next, “GTGGTTTGAACGAATGAGTGAAGGTATACTCGGGGTAATTCGGAGTCACCTAGTGCAG”: 8770 fluorescence intensity (a.u.).

With “CCGCTTTATCCTGCCCATTTAAATACCCATACTGTGCTTCCGGAGTCACCTAGTGCAG”, the binding signal was 8110 fluorescence intensity (a.u.).
